Measurements reported in PubChem BioAssay AID493246 (Drosophila RNAi Screening Center, 2011).

- Assay: 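Genome-wide search for dsRNAs that reduce cell number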 (primary screen)
- Cell system: Drosophila Kc and S2R+ cells
- Reagent: long dsRNA against Drosophila genes
- Read-out: 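Raw, unnormalised count of remaining cells in each well; per-plate z-scores of cell number underlie the calls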
- Reading the numbers: Kc cell number and S2R+ cell number: higher = more cells remaining
- Hit rule: 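Counted as a hit if cell number falls by a z-score of at least 3 within its plate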
The screen tested about 21,000 reagents; below is a random part of those with a known target gene and a result. Over the whole deposit, 429 (2%) were called active. 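Values are raw and not normalised between plates; calls rest on per-plate z-scores that were not deposited.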 Reagents against one gene are numbered here. Reagent sequences are not shown. Not given: the amount of reagent, the time to read-out.

predicted target	reagent	Kc cell number, rep 1	Kc cell number, rep 2	S2R+ cell number, rep 1	S2R+ cell number, rep 2	activity call
CG14708	1	1.59e6	1.74e6	1.27e6	1.44e6	inactive
CG34232	1	1.43e6	1.38e6	8.96e5	1.04e6	inactive
grau	1	1.53e6	1.63e6	1.29e6	4.69e5	inactive
Suv3	1	1.46e6	1.51e6	1.23e6	1.26e6	inactive
CG5644	1	1.23e6	1.30e6	1.20e6	1.16e6	inactive
CG14926	1	1.71e6	1.84e6	1.47e6	1.58e6	inactive
alpha-Est4	1	1.46e6	1.57e6	1.29e6	1.43e6	inactive
Adgf-B	1	1.40e6	1.50e6	1.27e6	1.36e6	inactive
CG17636	1	1.40e6	1.45e6	1.06e6	1.14e6	inactive
CG7394	1	1.65e6	1.66e6	1.33e6	1.31e6	inactive
Cyp301a1	1	1.53e6	1.55e6	1.32e6	1.39e6	inactive
Uro	1	1.71e6	1.81e6	1.29e6	1.51e6	inactive
cDIP	1	1.55e6	1.69e6	1.25e6	1.32e6	inactive
Mo25	1	1.50e6	1.59e6	1.17e6	1.21e6	inactive

Laid out differently: entries from further up
| predicted target | reagent | Kc cell number, rep 1 | Kc cell number, rep 2 | S2R+ cell number, rep 1 | S2R+ cell number, rep 2 | activity call |
| --- | --- | --- | --- | --- | --- | --- |
| CG5644 | 1 | 1.23e6 | 1.30e6 | 1.20e6 | 1.16e6 | inactive |
| CG14926 | 1 | 1.71e6 | 1.84e6 | 1.47e6 | 1.58e6 | inactive |
| alpha-Est4 | 1 | 1.46e6 | 1.57e6 | 1.29e6 | 1.43e6 | inactive |
| Adgf-B | 1 | 1.40e6 | 1.50e6 | 1.27e6 | 1.36e6 | inactive |
| CG17636 | 1 | 1.40e6 | 1.45e6 | 1.06e6 | 1.14e6 | inactive |
| CG7394 | 1 | 1.65e6 | 1.66e6 | 1.33e6 | 1.31e6 | inactive |

More reagents follow.
predicted target	reagent	Kc cell number, rep 1	Kc cell number, rep 2	S2R+ cell number, rep 1	S2R+ cell number, rep 2	activity call
Ir11a	1	1.77e6	1.60e6	1.13e6	1.20e6	inactive
z	1	3.08e5		5.80e5		active
Cad89D	1	1.35e6	1.41e6	1.13e6	1.28e6	inactive
Cftr	1	1.58e6	1.77e6	1.21e6	1.31e6	inactive
Ercc1	1	1.21e6	1.30e6	7.41e5	8.26e5	inactive
CG16986	1	1.37e6	1.33e6	1.00e6	1.28e6	inactive
CROT	1	4.83e5		7.76e5		inactive
CROT	2	1.42e6	1.42e6	9.88e5	1.10e6	inactive
JTBR	1	1.22e6	1.41e6	1.14e6	1.26e6	inactive
raskol	1	1.30e6	1.45e6	1.07e6	1.16e6	inactive
raskol	2	1.48e6	1.51e6	1.07e6	1.13e6	inactive
raskol	3	1.53e6	1.51e6	1.07e6	1.10e6	inactive
raskol	4	7.59e5	8.96e5	4.57e5	5.26e5	active
CG30083	1	1.65e6	1.64e6	1.04e6	1.21e6	inactive
rl	1	1.10e6	1.06e6	1.03e6	1.26e6	inactive
rl	2	1.41e6	1.44e6	1.07e6	1.17e6	inactive
ms(3)K81	1	1.65e6	1.71e6	1.02e6	1.14e6	inactive
CG11041	1	1.57e6	1.57e6	1.21e6	1.36e6	inactive
CG9698	1	1.72e6	1.82e6	1.01e6	1.15e6	inactive
CG3603	1	1.48e6	1.48e6	1.04e6	1.18e6	inactive
lft	1	1.48e6	1.52e6	1.19e6	1.32e6	inactive
TwdlN	1	1.47e6	1.63e6	9.47e5	1.07e6	inactive
ca	1	5.46e5		8.58e5		inactive
ca	2	1.50e6	1.56e6	9.73e5	1.15e6	inactive
ca	3	1.48e6	1.50e6	1.03e6	1.16e6	inactive
betaTub85D	1	1.55e6	1.51e6	9.34e5	1.01e6	inactive
